The exact form of at least one protein or probe is not confirmed. Results from cells or extracts need not show a direct contact. No signal at the amounts used counts as a negative. Where a protein sequence is shown, tags need not be part of it.

The first data set concerns the target T1, TUT7 wild-type (Flag-tagged, immunopurified) (UniProt Q5VYS8).
T1 sequence (looked up, limits assumed): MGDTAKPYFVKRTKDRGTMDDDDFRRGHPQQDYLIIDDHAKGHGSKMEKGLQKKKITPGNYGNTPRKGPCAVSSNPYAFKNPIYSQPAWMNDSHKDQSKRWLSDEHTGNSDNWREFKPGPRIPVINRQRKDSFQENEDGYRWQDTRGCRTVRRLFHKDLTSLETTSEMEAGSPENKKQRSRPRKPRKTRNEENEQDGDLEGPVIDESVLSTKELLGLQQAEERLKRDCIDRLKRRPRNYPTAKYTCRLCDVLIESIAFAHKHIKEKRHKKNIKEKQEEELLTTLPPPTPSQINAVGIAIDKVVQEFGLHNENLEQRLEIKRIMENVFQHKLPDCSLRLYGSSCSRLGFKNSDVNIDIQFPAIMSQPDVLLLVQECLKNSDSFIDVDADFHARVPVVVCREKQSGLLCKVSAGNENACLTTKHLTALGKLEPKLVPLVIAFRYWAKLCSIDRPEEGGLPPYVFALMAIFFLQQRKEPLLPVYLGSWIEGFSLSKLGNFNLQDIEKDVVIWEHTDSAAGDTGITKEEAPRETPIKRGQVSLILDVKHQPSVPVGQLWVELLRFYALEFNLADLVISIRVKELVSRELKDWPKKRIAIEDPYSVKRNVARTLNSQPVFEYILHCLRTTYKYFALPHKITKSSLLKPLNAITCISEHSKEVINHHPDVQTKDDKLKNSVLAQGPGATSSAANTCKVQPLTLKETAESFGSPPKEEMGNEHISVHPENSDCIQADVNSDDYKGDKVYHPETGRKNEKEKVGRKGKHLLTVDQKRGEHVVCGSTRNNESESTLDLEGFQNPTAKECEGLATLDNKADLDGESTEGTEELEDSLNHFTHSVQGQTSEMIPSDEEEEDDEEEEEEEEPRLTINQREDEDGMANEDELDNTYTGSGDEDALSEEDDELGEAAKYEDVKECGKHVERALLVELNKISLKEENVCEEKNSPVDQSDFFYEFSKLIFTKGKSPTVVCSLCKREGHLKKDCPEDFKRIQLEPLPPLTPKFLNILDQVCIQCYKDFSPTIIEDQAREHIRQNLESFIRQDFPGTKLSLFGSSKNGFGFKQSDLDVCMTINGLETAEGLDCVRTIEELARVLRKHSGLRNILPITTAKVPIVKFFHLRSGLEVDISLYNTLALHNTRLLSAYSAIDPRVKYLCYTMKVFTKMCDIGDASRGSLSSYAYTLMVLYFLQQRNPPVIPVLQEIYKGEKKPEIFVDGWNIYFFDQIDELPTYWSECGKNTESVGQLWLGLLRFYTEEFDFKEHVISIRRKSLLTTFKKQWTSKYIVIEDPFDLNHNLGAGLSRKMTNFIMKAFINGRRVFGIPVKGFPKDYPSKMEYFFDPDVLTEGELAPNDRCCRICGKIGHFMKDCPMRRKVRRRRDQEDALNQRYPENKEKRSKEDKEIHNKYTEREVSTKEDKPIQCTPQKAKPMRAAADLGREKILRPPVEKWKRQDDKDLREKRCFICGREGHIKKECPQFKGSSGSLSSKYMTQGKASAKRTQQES
Description: competition with a labelled probe. The conditions noted are these: 1x or 5x unlabeled RNA vs Cy3 probe N2; 75 fmol RNA with immunopurified TUT7, 37 °C, 30 min; salt and pH not stated; native PAGE (6% in Methods, 10% in legend); protein in a lysate after overexpression; protein details: N-terminal Flag.
In the case of “ACAGGUCAGAAGUGAUCACCCUGUUGAAUGACAUUGUAUCUCUGUCAUUU [Zc3h12a stem-loop St1m]”, the binding result is reported as “no binding”.
On the same count and under the same terms, to “ACAGGUCAGAAGUGAUCACCCUGUUGAUACACAUUCAUUCUCUGUCAUUU [Zc3h12a stem-loop St2m]” belongs “no binding”; to “ACAGGUCAGAAGUGAUCACCCUGUUGAAUGACAUUCAUUCUCUGUCAUUU [Zc3h12a stem-loop St(1+2)m]”, “binds”; to “ACAGGUCAGAAGUGAUCACCCUGUUGAUACACAUUGUAUCUCUGUCAUUU [Zc3h12a stem-loop wild-type]”, “binds”.

The target of another data set is T1, TUT7 wild-type (Flag-tagged, immunopurified). The data set can be described thus: EMSA. The conditions noted are these: Cy3 fluorescence; 75 fmol RNA with immunopurified TUT7, 37 °C, 30 min; salt and pH not stated; native PAGE (6% in Methods, 10% in legend); protein in a lysate after overexpression; protein details: N-terminal Flag; label: 5' Cy3.
In the case of “ACAGGUCAGAAGUGAUCACCCUGUUGAUACACAUUGUAUCUCUGUCAUUU [Cy3-Zc3h12a stem-loop wild-type]”, the binding result is on record as “binds”.

Staying with this data set, now noted: SYBR Green II; 75 fmol RNA with immunopurified TUT7, 37 °C, 30 min; salt and pH not stated; native PAGE (6% in Methods, 10% in legend); protein in a lysate after overexpression; protein details: N-terminal Flag.
As to “AAUAUAUCCUGUUGUCAGGUAUCUGACUUAUGUUGUUCUCUACGAAGAACUGACAAUAUG [Il6 stem-loop wild-type]”, the binding result was “no binding”.
Same read-out and setting: to “ACAGGUCAGAAGUGAUCACCCUGUUGAAUGACAUUGUAUCUCUGUCAUUU [Zc3h12a stem-loop St1m]” belongs “no binding”.
Same read-out and setting: to “ACAGGUCAGAAGUGAUCACCCUGUUGAUACACAUUCAUUCUCUGUCAUUU [Zc3h12a stem-loop St2m]” belongs “no binding”; to “ACAGGUCAGAAGUGAUCACCCUGUUGAUACACAUUGUAUCUCUGUCAUUU [Zc3h12a stem-loop wild-type]”, “binds”.

The values are drawn from paper PMC8241994.
